Results are given in words; binding and its absence hold for the method and conditions named. Binding seen in cells or lysates may run through a third protein. Some entries that bind do so weakly or less than the wild type. For part of these data: Where a sequence is shown, tags or fusion partners need not be part of it.
How the values were obtained:
[1] = molecular target: Kog1–HA3 (Saccharomyces cerevisiae) (UniProt P38873); assay: co-IP; anti-HA magnetic beads on cleared lysates of yeast with genomically tagged proteins (wild type and gtr1Δ gtr2Δ), 2 h at 4 °C; washes with 300 mM NaCl, 10% glycerol, 0.1% Nonidet P40; immunoblot
[2] = molecular target: T1, Tco89–HA3 (Saccharomyces cerevisiae) (UniProt Q08921); assay: as above
T1 sequence: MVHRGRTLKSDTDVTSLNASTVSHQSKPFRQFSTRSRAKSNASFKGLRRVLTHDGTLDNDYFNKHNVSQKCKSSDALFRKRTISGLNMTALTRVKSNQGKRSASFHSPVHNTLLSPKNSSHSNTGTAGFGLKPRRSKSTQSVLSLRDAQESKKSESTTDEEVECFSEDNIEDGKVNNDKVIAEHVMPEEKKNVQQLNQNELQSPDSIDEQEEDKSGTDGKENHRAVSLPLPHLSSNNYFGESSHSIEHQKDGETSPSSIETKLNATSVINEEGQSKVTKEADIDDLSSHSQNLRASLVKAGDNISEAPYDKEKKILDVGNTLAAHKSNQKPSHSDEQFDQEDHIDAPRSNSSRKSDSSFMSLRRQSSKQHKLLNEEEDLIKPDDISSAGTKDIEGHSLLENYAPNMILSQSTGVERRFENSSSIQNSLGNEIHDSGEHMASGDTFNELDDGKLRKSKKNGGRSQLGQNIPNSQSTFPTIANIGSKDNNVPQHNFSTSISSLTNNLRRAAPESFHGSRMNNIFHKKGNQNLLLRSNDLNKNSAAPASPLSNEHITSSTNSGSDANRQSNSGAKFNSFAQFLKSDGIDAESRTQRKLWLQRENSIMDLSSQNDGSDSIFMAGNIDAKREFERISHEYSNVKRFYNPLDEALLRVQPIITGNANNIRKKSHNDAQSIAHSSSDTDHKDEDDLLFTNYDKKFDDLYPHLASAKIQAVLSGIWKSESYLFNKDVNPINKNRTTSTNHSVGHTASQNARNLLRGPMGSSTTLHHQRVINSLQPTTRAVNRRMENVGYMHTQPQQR

The chains behind the UniProt entries cited, without tags or fusion partners.
UniProt P38873: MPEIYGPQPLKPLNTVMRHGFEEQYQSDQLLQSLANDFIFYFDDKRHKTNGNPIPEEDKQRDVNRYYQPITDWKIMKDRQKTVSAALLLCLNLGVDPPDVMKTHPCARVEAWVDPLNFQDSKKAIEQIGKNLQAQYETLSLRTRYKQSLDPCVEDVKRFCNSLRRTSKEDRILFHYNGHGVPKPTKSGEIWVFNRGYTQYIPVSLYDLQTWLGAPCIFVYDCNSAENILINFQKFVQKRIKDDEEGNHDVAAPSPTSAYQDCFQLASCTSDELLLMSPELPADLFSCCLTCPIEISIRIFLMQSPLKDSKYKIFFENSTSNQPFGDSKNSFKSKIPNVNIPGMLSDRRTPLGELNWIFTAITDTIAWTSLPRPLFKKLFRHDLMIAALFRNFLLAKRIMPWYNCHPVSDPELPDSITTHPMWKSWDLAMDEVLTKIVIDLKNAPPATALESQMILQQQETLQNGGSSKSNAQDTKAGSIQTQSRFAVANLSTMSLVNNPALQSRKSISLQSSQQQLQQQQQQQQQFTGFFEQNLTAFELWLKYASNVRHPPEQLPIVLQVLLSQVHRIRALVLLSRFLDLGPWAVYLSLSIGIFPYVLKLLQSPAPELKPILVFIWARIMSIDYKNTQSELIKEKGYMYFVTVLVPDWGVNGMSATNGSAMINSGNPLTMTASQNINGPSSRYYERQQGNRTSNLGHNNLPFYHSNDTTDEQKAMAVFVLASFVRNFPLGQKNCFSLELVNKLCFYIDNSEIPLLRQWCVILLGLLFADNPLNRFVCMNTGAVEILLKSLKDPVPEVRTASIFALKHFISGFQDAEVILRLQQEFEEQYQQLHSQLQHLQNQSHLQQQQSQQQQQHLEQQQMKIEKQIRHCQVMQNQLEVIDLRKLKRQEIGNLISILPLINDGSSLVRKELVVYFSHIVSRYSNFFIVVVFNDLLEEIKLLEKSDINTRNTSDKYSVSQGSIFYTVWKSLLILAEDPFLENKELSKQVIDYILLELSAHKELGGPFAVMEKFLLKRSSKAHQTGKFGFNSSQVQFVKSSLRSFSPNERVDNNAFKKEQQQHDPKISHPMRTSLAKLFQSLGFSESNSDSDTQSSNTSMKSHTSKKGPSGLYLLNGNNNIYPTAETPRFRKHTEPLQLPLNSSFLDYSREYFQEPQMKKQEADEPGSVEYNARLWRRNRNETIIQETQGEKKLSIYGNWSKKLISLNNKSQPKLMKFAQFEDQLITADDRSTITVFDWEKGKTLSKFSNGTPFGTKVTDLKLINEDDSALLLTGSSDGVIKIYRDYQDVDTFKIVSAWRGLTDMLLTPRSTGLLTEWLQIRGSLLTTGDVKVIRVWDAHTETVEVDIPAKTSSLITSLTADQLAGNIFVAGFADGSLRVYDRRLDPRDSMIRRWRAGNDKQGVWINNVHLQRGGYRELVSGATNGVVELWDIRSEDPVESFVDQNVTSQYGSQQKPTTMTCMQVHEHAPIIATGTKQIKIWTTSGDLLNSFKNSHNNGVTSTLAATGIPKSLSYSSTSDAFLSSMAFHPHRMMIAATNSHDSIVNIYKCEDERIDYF
UniProt Q00955: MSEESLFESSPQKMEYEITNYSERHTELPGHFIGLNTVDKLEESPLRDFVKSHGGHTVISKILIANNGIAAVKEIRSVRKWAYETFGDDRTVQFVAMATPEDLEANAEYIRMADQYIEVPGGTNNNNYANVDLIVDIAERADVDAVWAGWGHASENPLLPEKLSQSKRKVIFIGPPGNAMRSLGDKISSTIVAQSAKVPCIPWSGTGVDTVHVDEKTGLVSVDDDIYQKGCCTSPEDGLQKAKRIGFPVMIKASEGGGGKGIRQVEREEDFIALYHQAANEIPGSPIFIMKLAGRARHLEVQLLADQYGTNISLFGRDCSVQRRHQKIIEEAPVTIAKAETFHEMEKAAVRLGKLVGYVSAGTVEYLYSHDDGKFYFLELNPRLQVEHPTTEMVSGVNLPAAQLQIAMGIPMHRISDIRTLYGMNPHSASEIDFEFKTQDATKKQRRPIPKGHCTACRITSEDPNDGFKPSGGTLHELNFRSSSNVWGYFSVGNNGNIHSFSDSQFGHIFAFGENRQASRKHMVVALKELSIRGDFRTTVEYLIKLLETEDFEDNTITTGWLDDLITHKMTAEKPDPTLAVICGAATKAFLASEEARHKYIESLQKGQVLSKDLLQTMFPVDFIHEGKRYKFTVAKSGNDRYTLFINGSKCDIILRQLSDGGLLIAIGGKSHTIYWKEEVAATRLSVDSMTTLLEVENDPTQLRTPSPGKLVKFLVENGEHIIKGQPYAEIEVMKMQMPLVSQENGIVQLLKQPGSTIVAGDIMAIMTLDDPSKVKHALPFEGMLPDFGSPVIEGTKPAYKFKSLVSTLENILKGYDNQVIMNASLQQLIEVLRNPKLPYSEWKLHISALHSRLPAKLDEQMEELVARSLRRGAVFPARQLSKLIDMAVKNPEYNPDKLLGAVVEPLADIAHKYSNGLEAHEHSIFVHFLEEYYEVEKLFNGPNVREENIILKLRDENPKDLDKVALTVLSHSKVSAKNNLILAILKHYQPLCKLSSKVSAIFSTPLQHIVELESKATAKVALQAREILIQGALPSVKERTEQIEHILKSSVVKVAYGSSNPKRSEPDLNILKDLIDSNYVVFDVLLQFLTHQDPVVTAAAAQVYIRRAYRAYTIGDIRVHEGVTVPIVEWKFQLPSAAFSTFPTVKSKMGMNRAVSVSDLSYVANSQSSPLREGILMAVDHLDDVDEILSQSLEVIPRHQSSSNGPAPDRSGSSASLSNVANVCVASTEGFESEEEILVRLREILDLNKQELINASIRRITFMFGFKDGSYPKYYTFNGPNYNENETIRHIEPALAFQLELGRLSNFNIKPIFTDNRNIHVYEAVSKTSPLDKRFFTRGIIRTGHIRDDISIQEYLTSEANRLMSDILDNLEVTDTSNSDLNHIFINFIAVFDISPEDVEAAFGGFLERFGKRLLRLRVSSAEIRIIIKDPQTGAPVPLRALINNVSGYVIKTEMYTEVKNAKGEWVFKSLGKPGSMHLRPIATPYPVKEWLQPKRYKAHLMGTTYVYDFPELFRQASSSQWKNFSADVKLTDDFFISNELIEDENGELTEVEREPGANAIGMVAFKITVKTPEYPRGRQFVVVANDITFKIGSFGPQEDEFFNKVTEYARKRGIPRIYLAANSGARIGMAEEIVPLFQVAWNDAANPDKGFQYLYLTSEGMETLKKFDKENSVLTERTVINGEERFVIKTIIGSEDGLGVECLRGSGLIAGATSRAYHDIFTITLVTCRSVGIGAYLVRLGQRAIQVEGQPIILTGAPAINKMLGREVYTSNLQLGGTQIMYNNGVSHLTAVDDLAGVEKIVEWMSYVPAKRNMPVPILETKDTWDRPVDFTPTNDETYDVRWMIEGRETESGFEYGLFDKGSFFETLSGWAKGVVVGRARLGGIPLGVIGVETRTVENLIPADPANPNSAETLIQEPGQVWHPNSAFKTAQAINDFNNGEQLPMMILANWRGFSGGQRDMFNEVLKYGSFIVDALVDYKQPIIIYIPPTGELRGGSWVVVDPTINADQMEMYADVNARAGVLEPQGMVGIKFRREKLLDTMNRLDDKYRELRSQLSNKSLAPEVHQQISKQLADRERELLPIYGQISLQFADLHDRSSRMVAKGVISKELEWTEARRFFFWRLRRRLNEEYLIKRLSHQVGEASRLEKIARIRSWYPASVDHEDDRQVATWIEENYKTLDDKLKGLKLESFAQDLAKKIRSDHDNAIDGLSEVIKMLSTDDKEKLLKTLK
UniProt P07149: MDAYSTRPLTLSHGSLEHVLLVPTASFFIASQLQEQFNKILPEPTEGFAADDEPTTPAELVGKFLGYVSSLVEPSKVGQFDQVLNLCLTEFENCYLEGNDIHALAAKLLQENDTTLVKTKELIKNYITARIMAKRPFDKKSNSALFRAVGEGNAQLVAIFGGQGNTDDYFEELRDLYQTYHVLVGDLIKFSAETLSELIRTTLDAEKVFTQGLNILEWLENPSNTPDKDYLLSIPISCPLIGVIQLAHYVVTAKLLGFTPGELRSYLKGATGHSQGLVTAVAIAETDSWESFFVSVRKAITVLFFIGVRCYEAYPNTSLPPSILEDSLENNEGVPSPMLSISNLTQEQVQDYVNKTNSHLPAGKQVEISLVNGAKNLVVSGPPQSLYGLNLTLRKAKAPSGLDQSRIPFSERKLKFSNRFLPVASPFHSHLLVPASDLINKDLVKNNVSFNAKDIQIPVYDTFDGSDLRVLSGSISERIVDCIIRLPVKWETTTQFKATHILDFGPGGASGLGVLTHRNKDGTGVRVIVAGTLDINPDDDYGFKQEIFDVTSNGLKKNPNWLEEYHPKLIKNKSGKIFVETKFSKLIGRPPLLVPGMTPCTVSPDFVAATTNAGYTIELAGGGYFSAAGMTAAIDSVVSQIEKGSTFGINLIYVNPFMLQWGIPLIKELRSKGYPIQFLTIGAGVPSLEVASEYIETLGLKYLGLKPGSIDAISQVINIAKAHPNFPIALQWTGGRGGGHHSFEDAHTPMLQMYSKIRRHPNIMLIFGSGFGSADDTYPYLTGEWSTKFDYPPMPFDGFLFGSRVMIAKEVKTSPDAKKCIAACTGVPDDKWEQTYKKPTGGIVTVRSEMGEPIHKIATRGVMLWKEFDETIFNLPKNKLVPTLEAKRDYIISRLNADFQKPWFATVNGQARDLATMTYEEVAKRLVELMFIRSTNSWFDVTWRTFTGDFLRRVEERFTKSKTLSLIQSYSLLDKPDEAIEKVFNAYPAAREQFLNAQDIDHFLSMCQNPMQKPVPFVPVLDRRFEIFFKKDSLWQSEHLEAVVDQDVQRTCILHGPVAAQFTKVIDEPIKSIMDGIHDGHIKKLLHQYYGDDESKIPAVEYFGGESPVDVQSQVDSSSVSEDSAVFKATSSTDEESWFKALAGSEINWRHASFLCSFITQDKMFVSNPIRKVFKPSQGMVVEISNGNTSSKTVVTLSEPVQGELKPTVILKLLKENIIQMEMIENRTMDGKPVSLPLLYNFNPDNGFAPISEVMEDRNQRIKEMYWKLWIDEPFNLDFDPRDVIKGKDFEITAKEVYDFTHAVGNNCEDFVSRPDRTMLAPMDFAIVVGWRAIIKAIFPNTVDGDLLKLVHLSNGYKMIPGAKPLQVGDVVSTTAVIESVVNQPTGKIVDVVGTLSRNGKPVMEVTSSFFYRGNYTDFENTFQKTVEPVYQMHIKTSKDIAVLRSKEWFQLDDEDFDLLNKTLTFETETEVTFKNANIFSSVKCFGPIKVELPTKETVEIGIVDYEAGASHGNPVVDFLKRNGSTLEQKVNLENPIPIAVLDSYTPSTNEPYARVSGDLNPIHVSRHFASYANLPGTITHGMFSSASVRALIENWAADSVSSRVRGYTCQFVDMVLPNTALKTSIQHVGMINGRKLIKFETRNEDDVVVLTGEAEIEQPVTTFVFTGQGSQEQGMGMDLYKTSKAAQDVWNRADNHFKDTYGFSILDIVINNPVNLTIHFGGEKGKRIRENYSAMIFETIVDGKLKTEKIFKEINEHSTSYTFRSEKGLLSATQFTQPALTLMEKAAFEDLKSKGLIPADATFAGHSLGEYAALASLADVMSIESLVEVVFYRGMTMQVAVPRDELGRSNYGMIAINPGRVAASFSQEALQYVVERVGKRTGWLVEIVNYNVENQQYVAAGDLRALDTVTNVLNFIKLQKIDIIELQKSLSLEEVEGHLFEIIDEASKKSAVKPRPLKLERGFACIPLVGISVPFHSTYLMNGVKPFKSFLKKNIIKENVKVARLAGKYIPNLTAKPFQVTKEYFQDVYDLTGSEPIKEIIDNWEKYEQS

| Substance | binding [1] | binding [2] |
| --- | --- | --- |
| Acc1–myc13 (from UniProt Q00955 1-2233) (enzyme) | binds | binds |
| Fas1–myc13 (from UniProt P07149 1-2051) (enzyme) | binds |  |

Source: PMC10495264 (Nature Cell Biology, 2023)
